This passage reports binding signal results from article PMC7819943, “Rice protein-binding microarrays: a tool to detect cis-acting elements near promoter regions in rice”.

By UniProt entry, the sequences of proteins in these tests, tags left out.
UniProt Q0JBA9, entry or part of it: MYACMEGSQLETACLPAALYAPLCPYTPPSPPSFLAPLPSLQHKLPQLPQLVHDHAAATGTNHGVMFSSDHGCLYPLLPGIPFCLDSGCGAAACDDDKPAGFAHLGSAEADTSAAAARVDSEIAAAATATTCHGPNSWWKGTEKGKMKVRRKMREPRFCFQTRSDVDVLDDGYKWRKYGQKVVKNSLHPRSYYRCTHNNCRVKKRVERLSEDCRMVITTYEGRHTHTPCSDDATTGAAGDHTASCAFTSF

The other results are listed elsewhere or left out.

The test deals with OsWRKY34 (Oryza sativa, UniProt Q0JBA9 1-250). In words: protein-binding microarray (RPBM); PBS, 2% BSA, 51.3 ng/ul salmon testes DNA, 50 uM zinc acetate, 200 nM TF, 25 C, 1 h; high values mean tight binding. Conditions: protein: recombinant; tags: N-terminal polyhistidine and DsRed monomer fusion (pET32a); label: CyDye5-dUTP incorporated in the synthesized complementary strand; 3' TTTTT single-stranded linker to array surface; dsDNA, one strand shown. In outline: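 Transcription factors were made in E. coli BL21-CodonPlus as N-terminal fusions to a polyhistidine tag and DsRed, then purified on Ni–NTA. After primer extension with Cy5-dUTP and blocking with 2% BSA, a custom Agilent array was exposed for 1 h at 25 °C to 200 nM protein in PBS, 2% BSA, salmon testes DNA and 50 µM zinc acetate. Washed arrays were scanned on an Axon 4000B, and the binding signal is per-feature fluorescence intensity in arbitrary units.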
“TCAGAGCCGTTCAACCCCACGCGTGGACACAATCTGACCACGGAGTCACCTAGTGCAG”: the binding signal is 8450 fluorescence intensity (a.u.).

For the sequence “GTAGCAAATTTAGGAGCAGTATGTAGGGGCTTATAGTACTCGGAGTCACCTAGTGCAG”, the binding signal is 8450 fluorescence intensity (a.u.).

For “GCGGCCAAATTCCCACCGAACTGAACCTCTTCCTTTTTTTCGGAGTCACCTAGTGCAG”, the binding signal is 10300 fluorescence intensity (a.u.).

As to “CACAGTTGATGCTCATCACTTTCGCCTGCACTTGCACATACGGAGTCACCTAGTGCAG”, the binding signal was 10200 fluorescence intensity (a.u.).

Turning to “CCATTTATAGGTGTGTGAGGTGTGGTGTGCATGTGTATTTCGGAGTCACCTAGTGCAG”, the binding signal was 8960 fluorescence intensity (a.u.).

As for “TTCCTGCTGTTTCGGATCCTATTTAGTATCTTATTTAGATCGGAGTCACCTAGTGCAG”, the binding signal was 8080 fluorescence intensity (a.u.).

With “CTTCCTCATTGTTTTCCTAACCCTTTATCCATTTTGCTATCGGAGTCACCTAGTGCAG”, the binding signal was 8280 fluorescence intensity (a.u.).

With “TTTATAAAGAGTTTGCAAGTTTTTTTTTTTACATGTATCACGGAGTCACCTAGTGCAG”, the binding signal was 9080 fluorescence intensity (a.u.).

For “ATCAGCAGCGATTTTTTTTTCAGTTTTTGTTTTTTCATTTCGGAGTCACCTAGTGCAG”, the binding signal was 11200 fluorescence intensity (a.u.).

“GCGTTGTGGGTGTCTTGTGTTGTACTGCGTAATTCTTAAACGGAGTCACCTAGTGCAG”: the binding signal is 15000 fluorescence intensity (a.u.).

For “TCCGGCGGCATCTCCACCGGCCAACACCTGCAGCGCCGCCCGGAGTCACCTAGTGCAG”, the binding signal was 8740 fluorescence intensity (a.u.).

As for “ACAACTTACAGTACACCGGCTATCTCGTACTAAAACCGCTCGGAGTCACCTAGTGCAG”, the binding signal was 10800 fluorescence intensity (a.u.).

For the sequence “ATAATGCTCTCTCCTACTCATCCTTTCCGGACTGCTCGGACGGAGTCACCTAGTGCAG”, the binding signal was 8780 fluorescence intensity (a.u.).

As to “GATTTGCCTTGTTGCATTCCGCATGGAGCCTAACATATTTCGGAGTCACCTAGTGCAG”, the binding signal is 9470 fluorescence intensity (a.u.).

As for “TGGTTGGTGGTATAGATAGTAGGTATGAGTATTTTCTTTCCGGAGTCACCTAGTGCAG”, the binding signal was 13100 fluorescence intensity (a.u.).

With “TAGGTGTCTAGTCCCGACTGATTTTCGTTTCTTATAGCGTCGGAGTCACCTAGTGCAG”, the binding signal is 8040 fluorescence intensity (a.u.).

“TTACTTCACCCTGTTGCTTCGGTGGACTTTCTGGTGATCTCGGAGTCACCTAGTGCAG”: the binding signal was 12200 fluorescence intensity (a.u.).

On to “CTCATAAGCGTCAAGTTTTTTTCCCCTACCTTTCTTGTTACGGAGTCACCTAGTGCAG”, for which the binding signal is 10900 fluorescence intensity (a.u.).

Take “ATCCACCATCCATCCACGTCGCGACGCGTCCAACTCCATCCGGAGTCACCTAGTGCAG”: the binding signal is 9260 fluorescence intensity (a.u.).

As to “GGGGACAATTGGAATTCTATTTTTCTTTTGCCATGGTTTACGGAGTCACCTAGTGCAG”, the binding signal was 10600 fluorescence intensity (a.u.).

Consider “GTGGTGAATGGGTTGTCAATTTATTTTTTTACATGGATTTCGGAGTCACCTAGTGCAG”, for which the binding signal was 10500 fluorescence intensity (a.u.).

Turning to “AGAGTTTTCTTCTTGTTTCTCATGTTTGACTGGTGCCTGACGGAGTCACCTAGTGCAG”, the binding signal is 9880 fluorescence intensity (a.u.).

Regarding “TCCTTTTTGTTTTTCTTCGGGTCAACCCAGGCTCAGATCTCGGAGTCACCTAGTGCAG”, the binding signal was 9300 fluorescence intensity (a.u.).

Turning to “CATGAGTTGACCACTACAGTGCTCTGATCAACTCGCTATACGGAGTCACCTAGTGCAG”, the binding signal is 8250 fluorescence intensity (a.u.).

For “CAATCAGTTCGTTCTTGCACCTACTGCACTAGCTTTCTCCCGGAGTCACCTAGTGCAG”, the binding signal is 8660 fluorescence intensity (a.u.).

Consider “GATGAAATGCCCTTATTGTTCTTAGTCTCTTTTTTTTTTTCGGAGTCACCTAGTGCAG”, for which the binding signal is 9370 fluorescence intensity (a.u.).

Take “CTCTGCTGCCGCCACTGTTGCCCATCTCCTTCTTATCGCTCGGAGTCACCTAGTGCAG”: the binding signal is 14900 fluorescence intensity (a.u.).

As for “CCTCCTGGATACACTCCTCGCCGATGCCCCGCAGCAACTCCGGAGTCACCTAGTGCAG”, the binding signal is 8810 fluorescence intensity (a.u.).

“GGCGTCTCTTCAGCTGGTGGTTCTTGCACCGGTGGTTCTACGGAGTCACCTAGTGCAG”: the binding signal is 8370 fluorescence intensity (a.u.).

On to “GCCTCGCCCTCGCGTCGTCACCTCTCGCCATGGCCCACTACGGAGTCACCTAGTGCAG”, for which the binding signal was 9950 fluorescence intensity (a.u.).

As for “ACCTGGTATGTAATTCGCTCTGCTTTTTCATGGTGTAGTGCGGAGTCACCTAGTGCAG”, the binding signal was 8140 fluorescence intensity (a.u.).

In the case of “ACATGAGGTCATAGGTTTAACTGTCTGACTTCTCTATTTTCGGAGTCACCTAGTGCAG”, the binding signal was 8370 fluorescence intensity (a.u.).

For “GCTACTTTTTTCAAACGCGTTCCGTTTCTTTTTTGTTTTTCGGAGTCACCTAGTGCAG”, the binding signal is 13200 fluorescence intensity (a.u.).

Consider “TTCATCATCAAATTCCCAATTTCTTCGGTCGCGACGCCGACGGAGTCACCTAGTGCAG”, for which the binding signal is 8040 fluorescence intensity (a.u.).

Regarding “AATAGTTAATATGTCTGTTGTAACGGGATCCCATTTTATACGGAGTCACCTAGTGCAG”, the binding signal is 8800 fluorescence intensity (a.u.).

As to “AAGGAGAGGAGTAGGGTGCGGGGACTAGGGTTACGACGGCCGGAGTCACCTAGTGCAG”, the binding signal was 8470 fluorescence intensity (a.u.).

As to “TCGAATTTGGCCCATATTAGTTAGCGGTGCAGCACCGTTCCGGAGTCACCTAGTGCAG”, the binding signal was 8300 fluorescence intensity (a.u.).

Regarding “GCATATCGGCGCTCCCCGACGACCTCATCCAGCGCATCCTCGGAGTCACCTAGTGCAG”, the binding signal was 10100 fluorescence intensity (a.u.).

For the sequence “CATTTCTTTACTACTACCATACCATCTCCCTGCGTGCGTTCGGAGTCACCTAGTGCAG”, the binding signal is 10800 fluorescence intensity (a.u.).

Regarding “CCGACCCCGGCTTCCTCCGCCGCTTCCAATCCCGCCACCGCGGAGTCACCTAGTGCAG”, the binding signal was 11600 fluorescence intensity (a.u.).

For the sequence “CCTCATGCTCACTTTCATATAATATCTTCTTATTTTGAGTCGGAGTCACCTAGTGCAG”, the binding signal is 8120 fluorescence intensity (a.u.).

With “ACAACAACCACAGCTACCTCTGCTCACATGCCAATTGAATCGGAGTCACCTAGTGCAG”, the binding signal was 8580 fluorescence intensity (a.u.).
